{"sequences": {"note": "By UniProt entry, the sequences of proteins in these tests, tags left out.", "UniProt Q9H1Y3": "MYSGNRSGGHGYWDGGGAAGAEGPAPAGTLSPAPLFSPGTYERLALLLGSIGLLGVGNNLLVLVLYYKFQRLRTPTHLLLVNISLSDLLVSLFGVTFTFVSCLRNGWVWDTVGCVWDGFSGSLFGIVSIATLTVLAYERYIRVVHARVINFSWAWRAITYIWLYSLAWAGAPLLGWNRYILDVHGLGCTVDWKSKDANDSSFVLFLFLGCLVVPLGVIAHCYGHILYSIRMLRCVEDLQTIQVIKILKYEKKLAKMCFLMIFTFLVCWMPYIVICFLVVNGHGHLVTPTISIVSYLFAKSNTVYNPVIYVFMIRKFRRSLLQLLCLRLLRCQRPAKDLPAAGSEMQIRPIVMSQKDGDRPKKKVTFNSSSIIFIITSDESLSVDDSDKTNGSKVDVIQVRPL", "UniProt Q01726": "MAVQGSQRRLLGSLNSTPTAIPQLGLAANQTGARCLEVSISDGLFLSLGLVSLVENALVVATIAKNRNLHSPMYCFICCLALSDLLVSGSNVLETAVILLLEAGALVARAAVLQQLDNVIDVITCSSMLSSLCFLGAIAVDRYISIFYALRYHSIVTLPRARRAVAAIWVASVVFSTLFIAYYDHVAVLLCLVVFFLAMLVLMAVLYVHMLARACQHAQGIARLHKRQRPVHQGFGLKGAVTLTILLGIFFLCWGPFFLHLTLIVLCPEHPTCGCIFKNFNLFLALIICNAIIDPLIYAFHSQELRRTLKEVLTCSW"}, "source": "paper doi:10.1101/552851", "experiment_in_all_cases": "co-IP", "key": {"[1]": {"target": "OPN3, endogenous in human epidermal melanocytes (human (endogenous in HEMs)) (UniProt Q9H1Y3)"}, "[2]": {"target": "MC1R-n(3xHA) (human melanocortin-1 receptor with an N-terminal 3xHA tag) (human) (UniProt Q01726)"}, "[3]": {"target": "OPN3-cFLAG (human opsin3 with a C-terminal FLAG tag) (human) (UniProt Q9H1Y3)"}}, "note": "Results are given in words; binding and its absence hold for the method and conditions named. In cells and extracts the contact can be indirect. Some results given as binding are weak or reduced against the parent protein; the word gives no strength.", "data": [{"substance": "MC1R, endogenous in human epidermal melanocytes (from UniProt Q01726 1-317) (receptor)", "values": [{"measurement": "binding", "setting": "[1]", "result": "binds"}]}, {"substance": "OPN3-cFLAG (human opsin3 with a C-terminal FLAG tag) (from UniProt Q9H1Y3 1-402) (receptor)", "values": [{"measurement": "binding", "setting": "[2]", "result": "binds"}]}, {"substance": "MC1R-n(3xHA) (human melanocortin-1 receptor with an N-terminal 3xHA tag) (from UniProt Q01726 1-317)", "values": [{"measurement": "binding", "setting": "[3]", "result": "binds"}]}]}
